# Results as given in PubChem BioAssay AID493014 (National Center for Advancing Translational Sciences (NCATS), 2011).
# The other results are listed elsewhere or left out. Shown are side measurements of this screen, not its main read-out; they come without a call. Compounds called inactive in the main read-out are mostly missing here. Words in brackets tell the shape of the fitted curve; partial curves, single points and poor fits give uncertain potencies.
# Test: qHTS Assay to Find Inhibitors of Chronic Active B-Cell Receptor Signaling
# Settings: ABC-DLBCL IkBa-CBG/CBR reporter, luminescence ratio (green luciferase fused to IkBa over red control in TMD8 lymphoma cells), 4 h
# Method in brief: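 Doxycycline induced both beetle luciferases in TMD8 lymphoma cells; IKK-driven degradation limits the IkappaBalpha-fused green signal, while red luminescence normalises for cell number and nonspecific effects. Compounds tested up to 46 uM, 4 hrs.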
# [1] = measured here: CBR red luminescence, cell number
# [2] = measured here: IkBa-CBG green luminescence
Compound,AC50 [1],AC50 [2]
Cc1ccc(NC(=O)CCC(=O)NNC(=S)Nc2ccc(F)cc2F)cc1C,"14.1 µM [falling, partial curve, poor fit]",
Nc1ccc2nc(-c3ccc(N)c(Cl)c3)[nH]c2c1,"11.6 µM [falling, partial curve]",
C=CCn1c(SCC(N)=O)nnc1-c1cc2c(s1)CCC(CC)C2 (centres undefined),"0.411 µM [rising, full curve, poor fit]",
COc1cc(OC)c2c(c1)S(=O)(=O)C(c1ccccc1)=C2N,"2.24 µM [rising, full curve, poor fit]",
O=C(CN1C(=O)C2CC=CCC2C1=O)Nc1nc2ccc(F)cc2s1 (centres undefined),"35.5 µM [falling, single point]","5.62 µM [rising, full curve, poor fit]"
COC(=O)Cn1c(=NC(=O)c2ccc(Cl)s2)sc2cc(F)ccc21,"0.461 µM [rising, full curve]",
Cc1ccc(/C=N/Nc2ccccn2)s1,"0.708 µM [rising, full curve, poor fit]",
CCn1c(CSc2nc3ccccc3[nH]2)n[nH]c1=S,"6.51 µM [falling, single point]",
O=c1[nH]nc(CNc2ccc(C(F)(F)F)cc2)c2ccccc12,"1.78 µM [rising, full curve, poor fit]",
O=C1NCC(COc2cccc3ccccc23)O1 (centres undefined),"12.6 µM [falling, partial curve, poor fit]",
COc1cc(C(=O)N/N=C(\C)c2ccc3c(c2)OCO3)cc(OC)c1OC,"6.31 µM [rising, full curve]","8.91 µM [falling, partial curve]"
CCCOc1cccc(C(=O)Nc2ccccc2C(=O)N2CCN(C)CC2)c1,"10 µM [rising, partial curve]",
Cc1ccc(F)cc1NC(=O)CCOc1ccccc1,"20 µM [falling, partial curve, poor fit]",
COc1cc(CCCN2C(N)=NC[C@@H]2c2ccccc2)cc(OC)c1OC,"6.31 µM [falling, single point]",
CCn1c(SCC(=O)NNC(=O)Cc2ccccc2)nnc1-c1ccccc1,"3.98 µM [falling, single point]",
CCOC(=O)CSC1=NC(=O)/C(=C/c2ccc(OC)cc2)S1,"29.1 µM [falling, single point]",
COc1ccc(OC)c(C(=O)N/N=C/c2ccccn2)c1,"0.251 µM [rising, full curve, poor fit]",
C#CCOCCOCCOCCNc1nc(N2CCOCC2)nc(N2CCN(C(=O)[C@H]([C@@H](C)O)n3cc(CCCCN)nn3)CC2)n1,"16.4 µM [rising, single point]",
Cc1c(C#N)c2ccccc2n1CC(=O)NCc1cccnc1,"29.1 µM [rising, single point]",
O=C1Nc2ccccc2N(O)N1c1cc(-c2cccc(Cl)c2)no1,"1.03 µM [falling, full curve]",

Compound,AC50 [1],AC50 [2]
O=C(Nc1ccc(OC(F)(F)F)cc1)c1[nH]ncc1[N+](=O)[O-],"35.5 µM [falling, single point]",
COc1ccc(CN(C)CC(=O)c2c(N)n(Cc3ccccc3)c(=O)n(C)c2=O)c(OC)c1,"6.51 µM [rising, single point]",
CN1c2ccccc2C(O)=C(C(=O)Nc2ccccc2)S1(=O)=O,"12.6 µM [falling, partial curve]",
CCOCCCNC(=O)CSCc1nc(-c2ccc(SC)cc2)oc1C,"7.94 µM [rising, partial curve, poor fit]",
Cc1cc(C)c[n+](CC(=O)c2ccc(-c3ccccc3)cc2)c1,"5.8 µM [falling, full curve, poor fit]",
O=C(O)c1c2c(nc3ccccc13)/C(=C/c1cccc([N+](=O)[O-])c1)CCC2,"6.31 µM [rising, partial curve, poor fit]",
CS(=O)(=O)N1CCN(c2ccccc2NC(=O)c2ccc(Cl)cc2)CC1,"1.84 µM [rising, full curve, poor fit]",
O=c1[nH][nH]c(-c2ccccc2O)c1C(C[N+](=O)[O-])c1ccc(Cl)cc1Cl (centres undefined),"0.82 µM [falling, full curve]",
O=[N+]([O-])c1cccc(-c2noc3c2-c2nc(Cc4cccc5ccccc45)sc2CC3)c1,"4.11 µM [rising, full curve, poor fit]",
CCNC(=S)N/N=C(\C)c1cccc(C(F)(F)F)c1,"20 µM [falling, single point]","31.6 µM [falling, single point]"
COc1ccc(Cn2c(=O)[nH]c3cc(C(=O)NCCCN4CCCCCC4)ccc3c2=O)cc1,"25.1 µM [rising, single point]",
O=C(CNCCc1ccc(Cl)cc1Cl)NCc1ccco1,"0.1 µM [rising, full curve, poor fit]",
CCOc1ccc(C(=O)CN2CCN(S(=O)(=O)c3ccc(Br)cc3)CC2)cc1,"28.2 µM [falling, single point]",
Cc1ccc(C(=O)NCc2ccc3c(c2)CCO3)cc1C,"3.16 µM [rising, single point]",
CCN(CC)CCC(=O)Nc1cccc2c1C(=O)c1ccccc1C2=O,"7.08 µM [falling, partial curve]","10 µM [rising, partial curve, poor fit]"
S=C(Nc1ccc(Br)cc1Cl)Nn1cnnc1,"17.8 µM [rising, single point]",
COc1ccc(-c2cc3nc(C)c(CCC(=O)NCc4ccc(F)cc4)c(C)n3n2)c(OC)c1,"0.562 µM [falling, full curve, poor fit]",
O=C(CSc1nc2ccccc2c(=O)n1-c1ccc(OC(F)F)cc1)NCc1cccs1,"5.8 µM [falling, full curve]",
CNC(=S)N/N=C/c1c(C)nn(-c2cccc(Cl)c2)c1Cl,"0.517 µM [rising, full curve, poor fit]",
COc1ccccc1-c1cc(C(F)(F)F)nc(S(=O)(=O)CCCC(=O)NCc2ccc(F)cc2)n1,"8.91 µM [falling, partial curve]",

# Complete entries, quoted from the list:
# CCOCCCNC(=O)CSCc1nc(-c2ccc(SC)cc2)oc1C is listed with AC50 [1]: 7.94 µM [rising, partial curve, poor fit]
# O=C(CNCCc1ccc(Cl)cc1Cl)NCc1ccco1 is listed with AC50 [1]: 0.1 µM [rising, full curve, poor fit]
